Results reported in paper PMC3360035.
No constants are given. Whether binding was seen depends on the method and setting. For some assays here: A result given as binding can be weak or reduced; the word gives no strength.

Key:
[1] = molecular target: Human γD-crystallin V75D (human); test: SEC; native mixing: HγD and chaperone 1:1, each 1 mg/ml in SEC buffer, 37°C with gentle rotation for 14 to 28 days; filtered (0.2 µm), Superose 6 10/300 GL; fractions checked by Western blot (αB, HγD) or Trp fluorescence; both purified
[2] = molecular target: Human γD-crystallin V75D (human); test: SEC; HγD unfolded overnight in 5 M GdnHCl at 37°C, diluted 10-fold into refolding buffer (100 mM sodium phosphate, 1 mM EDTA, 5 mM DTT, pH 7.0) with αB in 5-fold molar excess (0.1 mg/ml HγD, 0.5 mg/ml αB, 0.5 M GdnHCl), 37°C; the suppression reaction then run over Superose 6; both purified

B1: αB-crystallin, wild type (protein, UniProt P02511 1-175)
chain: MDIAIHHPWIRRPFFPFHSPSRLFDQFFGEHLLESDLFPTSTSLSPFYLRPPSFLRAPSWFDTGLSEMRLEKDRFSVNLDVKHFSPEELKVKVLGDVIEVHGKHEERQDEHGFISREFHRKYRIPADVDPLTITSSLSSDGVLTVNGPRKQVSGPERTIPITREEKPAVTAAPKK
binding [1]: no binding (tested: 1 mg/ml each) | binding [2]: binds
